Test results: patent US20160067208A1, “ADHESION PREVENTING AGENT” (FARNEX INCORPORATED, priority 2013, published 2016)

Tested on: rat peritoneal section
Experiment: Test of bioadhesive property (TLC analysis)
Set-up: key: N: not substantially detected; S: detected only in a small amount
Details: 20 mg lipid on rat peritoneal section, liquid crystal gel formed with PBS (+), stirring 400rpm 1 hour at 37° C.

SMILES | TLC analysis (evaluation lipid detected in the aqueous solution)
CC(=CCCC(=O)OCC(O)COCC(O)CO)CCCC(C)CCCC(C)CCCC(C)C (centres unmarked) [Example 14, mono-O-(5,9,13,17-tetramethyloctadec-4-enoyl)diglycerol] | N
CC(=CC(=O)OCC(O)CO)CCCC(C)CCCC(C)C (centres unmarked) [Example 54, mono-O-(3,7,11-trimethyldodec-2-enoyl)glycerol] | S
CC(=CC(=O)OCC(CO)(CO)CO)CCCC(C)CCCC(C)CCCC(C)C (centres unmarked) [Example 55, mono-O-(3,7,11,15-tetramethylhexadec-2-enoyl)pentaerythritol] | N
CC(C)=CCC/C(C)=C/CCC(C)=CCCC(=O)OCC(O)CO (centres unmarked) [Example 1, mono-O-(5,9,13-trimethyltetradeca-4,8,12-trienoyl)glycerol] | S
CC(=CCOC[C@H](O)[C@H](O)CO)CCCC(C)CCCC(C)CCCC(C)C (some centres unmarked) [Example 57, mono-O-(3,7,11,15-tetramethylhexadec-2-enyl)erythritol] | N
CC(=CCCCOCC(CO)(CO)CO)CCCC(C)CCCC(C)C (centres unmarked) [Example 56, mono-O-(5,9,13-trimethyltetradec-4-enyl)pentaerythritol] | N
CC(=CCCCOCC(O)CO)CCCC(C)CCCC(C)CCCC(C)C (centres unmarked) [Example 58, mono-O-(5,9,13,17-tetramethyloctadec-4-enyl)glycerol] | N
CC(C)CCCC(C)CCCC(C)CCCC(=O)OCC(O)CO (centres unmarked) [Example 8, mono-O-(5,9,13-trimethyltetradecanoyl)glycerol] | N
CC(C)=CCC/C(C)=C/CC/C(C)=C/CCC(C)=CCCCOCC(CO)(CO)CO [Example 50, mono-O-(5,9,13,17-tetramethyloctadeca-4,8,12,16-tetraenyl)pentaerythritol] | N
CC(C)=CCC/C(C)=C/CC/C(C)=C/CCC(C)=CCCC(=O)OCC(O)CO (racemic) [Example 4, mono-O-(5,9,13,17-tetramethyloctadeca-4,8,12,16-tetraenoyl)glycerol] | S
CC(=CCCC(=O)OCC(O)CO)CCCC(C)CCCC(C)C (centres unmarked) [Example 13, mono-O-(5,9,13-trimethyltetradec-4-enoyl)glycerol] | N
CC(C)=CCC/C(C)=C/CC/C(C)=C/CCC(C)=CCCC(=O)OCC(O)C(O)CO (centres unmarked) [Example 5, mono-O-(5,9,13,17-tetramethyloctadeca-4,8,12,16-tetraenoyl)erythritol] | N
CC(C)CCCC(C)CCCC(C)CCCC(C)CCOC1OC[C@@H](O)C(O)C1O (stereo partly drawn) [Example 15, 1-O-(3,7,11,15-tetramethylhexadecyl)-β-D-xylopyranoside] | N
CC(C)=CCC/C(C)=C/CC/C(C)=C/CCC(C)=CCOCC(O)C(O)CO (centres unmarked) [Example 45, mono-O-(3,7,11,15-tetramethylhexadeca-2,6,10,14-tetraenyl)erythritol] | S
